These are yes or no findings as the source states them, for the method shown. In cells and extracts the contact can be indirect. Some entries that bind do so weakly or less than the wild type.

Sequences of proteins named here, by UniProt entry; tags and fusion partners are left off.
UniProt P40337: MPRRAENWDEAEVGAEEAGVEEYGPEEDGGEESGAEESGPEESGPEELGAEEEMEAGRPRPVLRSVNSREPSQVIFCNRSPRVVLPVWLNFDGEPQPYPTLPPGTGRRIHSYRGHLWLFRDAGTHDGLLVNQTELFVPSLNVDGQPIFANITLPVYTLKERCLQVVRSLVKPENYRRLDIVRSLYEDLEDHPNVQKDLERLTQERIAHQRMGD

The target of assay [1] is T1, heterogeneous nuclear ribonucleoprotein L (hnRNP L), endogenous (human (endogenous in U937 and primary PBM)) (UniProt P14866).
T1 sequence: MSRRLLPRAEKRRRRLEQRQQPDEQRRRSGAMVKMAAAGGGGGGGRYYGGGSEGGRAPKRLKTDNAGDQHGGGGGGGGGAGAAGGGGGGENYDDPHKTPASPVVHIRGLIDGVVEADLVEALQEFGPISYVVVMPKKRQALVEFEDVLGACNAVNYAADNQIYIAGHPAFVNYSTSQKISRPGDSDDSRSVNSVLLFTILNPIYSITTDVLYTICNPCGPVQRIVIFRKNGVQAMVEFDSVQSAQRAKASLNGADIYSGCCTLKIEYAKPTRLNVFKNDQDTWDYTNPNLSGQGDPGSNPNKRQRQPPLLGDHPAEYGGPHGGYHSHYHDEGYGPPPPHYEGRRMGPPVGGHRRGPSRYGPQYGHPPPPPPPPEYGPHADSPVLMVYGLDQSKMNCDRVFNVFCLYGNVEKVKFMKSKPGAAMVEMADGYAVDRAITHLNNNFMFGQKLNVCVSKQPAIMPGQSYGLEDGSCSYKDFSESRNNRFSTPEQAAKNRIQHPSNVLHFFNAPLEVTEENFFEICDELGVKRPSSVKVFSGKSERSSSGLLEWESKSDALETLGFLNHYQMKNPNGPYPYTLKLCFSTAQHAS
Briefly: condition: only hypoxia for 24 h in the presence of IFN-γ; co-IP; IP with anti-hnRNP L antibody from lysates of U937 cells kept in hypoxia for 24 h with IFN-γ; immunoblot for VHL. For orientation: A western blot detects proteins with antibodies after separation by electrophoresis.

The target of assay [2] is T1, heterogeneous nuclear ribonucleoprotein L (hnRNP L), endogenous (human (endogenous in U937 and primary PBM)). Briefly: co-IP; IP with anti-hnRNP L antibody from lysates of U937 cells and primary human PBM treated with IFN-γ in normoxia or hypoxia for 24 h; lysates with or without RNase A; immunoblot for hnRNP A2/B1, DRBP76, VHL; also after HA-VHL overexpression in hypoxia (Figure S7).

For “von Hippel-Lindau protein (VHL), endogenous (from UniProt P40337 1-213)”, the binding entry in assay [1] is on record as “no binding”; in assay [2], “binds”.
